Results deposited as PubChem BioAssay AID1259308 (NCATS, 2017)

- Test: 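Knock-downs that increase output of a recombinant reporter protein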 (primary screen)
- Cells: human HEK293 embryonic kidney cells stably expressing firefly luciferase (HEK-CMV-Luc2-Hygro)
- Reagents: single siRNA against human genes, 0.8 pmol siRNA per well
- Timing: 72 h
- Measurement: 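Reporter luminescence and viable-cell signal on separate replicate plates, given as percent of non-targeting control and median/MAD z-scores, plus per-cell luciferase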
- Scale: total luciferase, z-score and total luciferase, % of control: higher = more reporter protein produced; luciferase per cell, z-score: higher = more reporter output per viable cell; viable cells, % of control: higher = more viable cells
- Call rule: 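Active when the median/MAD z-score for overall luciferase is greater than 3; a gene was taken forward for validation with new siRNAs if at least two of its three siRNAs passed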
- Calls: active = raised luciferase; inactive = no rise
This is one part, drawn at random, of about 59,000 reagents. About 1,510 of all reagents (2.6%) count as active. 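Calls use total luciferase alone and ignore viability, so some active siRNAs may act by altering cell number.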 The numbers tell different reagents against one gene apart. Reagent sequences are not shown.

| target | reagent | total luciferase, z-score | total luciferase, % of control | luciferase per cell, z-score | viable cells, % of control | outcome |
| --- | --- | --- | --- | --- | --- | --- |
| IL6ST (interleukin 6 cytokine family signal transducer) | 1 | -0.325 | 75.4 | -0.141 | 87.5 | inactive |
| IL6ST (interleukin 6 cytokine family signal transducer) | 2 | -0.65 | 68.9 | -0.875 | 97 | inactive |
| IL6ST (interleukin 6 cytokine family signal transducer) | 3 | -0.15 | 78.9 | -0.145 | 91.6 | inactive |
| AP5Z1 (adaptor related protein complex 5 subunit zeta 1) | 1 | 0.0218 | 82.3 | -0.573 | 107 | inactive |
| AP5Z1 (adaptor related protein complex 5 subunit zeta 1) | 2 | 3.86 | 159 | 3.41 | 72.3 | active |
| AP5Z1 (adaptor related protein complex 5 subunit zeta 1) | 3 | -0.554 | 70.9 | -0.124 | 81.8 | inactive |
| VCF1 (VCP nuclear cofactor family member 1) | 1 | -2.39 | 34.3 | -2.57 | 75.4 | inactive |
| VCF1 (VCP nuclear cofactor family member 1) | 2 | 0.164 | 85.1 | 0.312 | 87.7 | inactive |
| VCF1 (VCP nuclear cofactor family member 1) | 3 | 0.699 | 95.8 | 0.00388 | 107 | inactive |
| NUDCD1 (NudC domain containing 1) | 1 | -0.198 | 78 | -0.182 | 91.4 | inactive |
| NUDCD1 (NudC domain containing 1) | 2 | 3.13 | 144 | 1.77 | 101 | active |
| NUDCD1 (NudC domain containing 1) | 3 | -0.593 | 70.1 | -0.926 | 99.9 | inactive |
| PRKAR2A | 1 | -0.977 | 62.4 | -0.932 | 89.2 | inactive |
| PRKAR2A | 2 | 0.261 | 87.1 | 0.967 | 75.4 | inactive |
| PRKAR2A | 3 | -0.0553 | 80.8 | -0.625 | 106 | inactive |
| XPO7 (exportin 7) | 1 | 0.00887 | 82.1 | -0.964 | 118 | inactive |
| XPO7 (exportin 7) | 2 | -0.269 | 76.5 | 0.308 | 78.8 | inactive |
| XPO7 (exportin 7) | 3 | 0.136 | 84.6 | 0.399 | 85.1 | inactive |
| NHLRC2 (NHL repeat containing 2) | 1 | -1.29 | 56.3 | -1.12 | 84.4 | inactive |
| NHLRC2 (NHL repeat containing 2) | 2 | 2.49 | 131 | 2.62 | 73.6 | inactive |
| NHLRC2 (NHL repeat containing 2) | 3 | 0.0167 | 82.2 | -0.329 | 100 | inactive |
| ETNPPL (ethanolamine-phosphate phospho-lyase) | 1 | 2.33 | 128 | 1.51 | 96.1 | inactive |
| ETNPPL (ethanolamine-phosphate phospho-lyase) | 2 | -1.96 | 42.8 | -1.52 | 71.4 | inactive |
| ETNPPL (ethanolamine-phosphate phospho-lyase) | 3 | 0.115 | 84.2 | -0.439 | 106 | inactive |

Taken from above.
Result for AP5Z1 (adaptor related protein complex 5 subunit zeta 1) #3 under “viable cells, % of control”: 81.8
PRKAR2A #3, luciferase per cell, z-score: -0.625
Value of AP5Z1 (adaptor related protein complex 5 subunit zeta 1) #2 in “outcome”: active
Value for PRKAR2A #1 under “total luciferase, z-score”: -0.977
